Laboratory results published in paper PMC9365560.
No constants are given. Whether binding was seen depends on the method and setting. In cells and extracts the contact can be indirect. Some binding calls cover weakened binding; strength is not graded here.

The chains behind the UniProt entries cited, without tags or fusion partners.
UniProt O15379: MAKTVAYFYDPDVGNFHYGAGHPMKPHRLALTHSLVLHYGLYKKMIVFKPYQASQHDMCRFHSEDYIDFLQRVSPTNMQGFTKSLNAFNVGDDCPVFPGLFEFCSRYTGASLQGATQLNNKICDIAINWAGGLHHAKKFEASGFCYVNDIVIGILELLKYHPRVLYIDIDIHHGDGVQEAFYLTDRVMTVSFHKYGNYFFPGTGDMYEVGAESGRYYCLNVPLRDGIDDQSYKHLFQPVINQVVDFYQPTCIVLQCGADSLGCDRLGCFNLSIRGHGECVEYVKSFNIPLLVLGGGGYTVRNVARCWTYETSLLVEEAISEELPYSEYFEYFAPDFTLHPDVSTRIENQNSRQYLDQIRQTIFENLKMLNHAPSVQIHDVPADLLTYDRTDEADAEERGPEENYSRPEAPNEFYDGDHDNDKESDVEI

Biological target: T1, Methyl-CpG-binding protein 1 (MBD1) (human (endogenous in SGC-7901)) (UniProt Q9UIS9)
T1 sequence: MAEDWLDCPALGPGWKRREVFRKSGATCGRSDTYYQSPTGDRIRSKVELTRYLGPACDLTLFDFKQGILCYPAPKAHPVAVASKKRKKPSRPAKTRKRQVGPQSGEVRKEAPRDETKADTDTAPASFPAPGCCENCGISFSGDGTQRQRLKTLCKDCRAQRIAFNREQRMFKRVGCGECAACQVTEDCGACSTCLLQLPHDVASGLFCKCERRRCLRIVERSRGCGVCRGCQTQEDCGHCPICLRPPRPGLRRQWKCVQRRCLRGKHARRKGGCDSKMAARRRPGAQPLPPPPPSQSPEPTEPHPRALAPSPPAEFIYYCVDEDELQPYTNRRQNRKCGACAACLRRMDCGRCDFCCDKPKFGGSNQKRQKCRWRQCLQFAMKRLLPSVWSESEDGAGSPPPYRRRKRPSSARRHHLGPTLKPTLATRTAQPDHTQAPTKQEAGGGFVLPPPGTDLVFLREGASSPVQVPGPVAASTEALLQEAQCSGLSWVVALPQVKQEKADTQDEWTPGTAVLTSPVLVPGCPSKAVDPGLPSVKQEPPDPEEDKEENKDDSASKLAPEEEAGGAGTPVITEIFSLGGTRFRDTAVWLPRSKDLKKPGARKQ
Test: co-IP; total protein of SGC-7901 cells; 10 ug of MBD1, HDAC3 antibody added to 300 ul of cell lysis for 30 min at 4 C, Dynal magnetic beads 2 h, boiled, Western blot

binding: binds
Substance: histone deacetylase (HDAC3) (from UniProt O15379 1-428)
